Test results reported in PubChem BioAssay AID1347423 (Functional Genomics Laboratory (NCATS/FGL), 2020).
Hit rate of the full screen: of about 52,000 sequences, about 210 (0.4%) were called active.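 How the source made its calls: active means gene whose silencing raises cell survival under the drug, median off-target-corrected z-score across its silencing RNAs 2 or more; inactive means the rest.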 Some of the results follow.

Experiment: Resistance to Poly (ADP-Ribose) Polymerase inhibitor: Gene Identification via Genome-wide siRNA Screen
Conditions: mouse BRCA2 R2336H ES cells, olaparib, CellTiter-Glo viability; active compounds read high
In short: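 Genome-wide siRNA screen (3 siRNAs/gene, 20 nM) in mouse ES cells carrying hypomorphic BRCA2 R2336H; olaparib 500 nM added 48 h post-transfection, CellTiter-Glo viability 72 h later. Normalized to plate-median negative control; MAD z-scores, gene median, seed-adjusted.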

Sequence	z-score
GGCUGUGUUCUAAUCAGUATT against Gad2	inactive: -1.7
GGACUCACAGAAAUUUCCATT against Slc36a1	inactive: 1.38
CCAGUGAUCAGUUUUAACGTT against Adamts20	inactive: -0.0673
GGAACCUAUCAUGAUGAAATT against Pter	inactive: -0.224
GGGUCAUUGGUAGCAACGATT against Oas1g	inactive: -0.983
CCAAUUUCCUUUCAGACUGTT against Cxxc4	inactive: -0.284
GGAGAAGAUAGAAGCUGAGTT against Rad23a	inactive: -0.0924
CCUCAAGUGCGAAAACGUGTT against Sstk	inactive: 0.645
GUUCCAUAUGGAGCUUGUCTT against Olfr401	inactive: -3.03
GCCUGUUAAUAUGCUGUAATT against Gpr83	inactive: -0.354
GCAUGCUUCAAGCCCUAGATT against Evc2	inactive: -1.44
GGUGCAAUCAGCUUUCCACTT against Olfr1336	inactive: -0.233
GGUUUACCAGGCACUGCUCTT against Atp2b2	inactive: 1.54
GAGUUCAUCAGAGUGUAGCTT against Ndufs7	inactive: 0.225
GGUCCAUACACCUGCUCUGTT against 3732419F12	inactive: 0.992
GGAGAAACAGUAAAGAAGATT against Pcbp3	inactive: -0.00301
GGGAUACCAUGGGAAUAGUTT against Vps52	inactive: 0.468
GGAGAAGUGUUAUCUAUGUTT against Rxrip110	inactive: -0.225
GCGAGUUUUUGGAUGGUAGTT against Slc4a3	inactive: 0.498
GGACUCUUACGCCUCAUCATT against Zfp422-rs1	inactive: 0.846
GUACCACGGAUCUCUUCAUTT against Galr3	inactive: 0.452
GCCUCACAUUGUAGGAAUCTT against Sitpec	inactive: 0.292
GGAAACUUCCCUUCCUAACTT against Snrp1c	inactive: -2.28
GCAAACUAUAGGUGCGUUGTT against 2600005O03Rik	inactive: 0.341
CCAAUUAGCCCAAAGAAACTT against Sec14l2	inactive: -0.972
CGCUCAGAAGUUGUAGGUGTT against Ors16	inactive: 0.74

A different layout for some results above.
CCAGUGAUCAGUUUUAACGTT against Adamts20
  z-score: inactive: -0.0673
GGAACCUAUCAUGAUGAAATT against Pter
  z-score: inactive: -0.224
GGGUCAUUGGUAGCAACGATT against Oas1g
  z-score: inactive: -0.983
CCAAUUUCCUUUCAGACUGTT against Cxxc4
  z-score: inactive: -0.284

(further entries)

Sequence	z-score
GGUCUAAUACUCAAUAGACTT against C030003D03Rik	inactive: 0.152
GGCUUUAAUUGUGAGAUGCTT against Il1rl1	inactive: -0.0486
GGUGUUCCUGCUCAUAUGUTT against 5730461K03Rik	inactive: 0.0624
GCUGAUGCUCCAUUGAAUGTT against 4930432K09Rik	inactive: 1.3
GGAAUCACUCAAAGCUUAATT against Dst	inactive: 0.663
GGAAGAGAAAGACCUGAGATT against Glra1	inactive: -0.8
GGAAGAAAAAUACCAGAAATT against Ubxd1	inactive: -0.661
GGACAGAUAGUGAAAGAUATT against C130036G08	inactive: -1.81
GGAUUGGCUCAAAGAUAUATT against Prss16	inactive: 0.301
GGAAAAUCCAUCUGGCCGATT against Myoc	inactive: 0.0506
GCGAUGCUGCGUUCUGUUUTT against H1fx	inactive: -0.532
GCUUACCAGAUUGUAUGUATT against Mrgpra1	inactive: -0.242
CCUAUUCCAACAAUUGGUUTT against Trim23	inactive: 0.205
GGUGUUUCAGGUGGACUAUTT against 2810039F03Rik	inactive: -2.37
GUGAUGAUUGAGAGAAUGATT against Pla2g2e	inactive: -0.743
GCUCUCAUACACGGUGGAATT against Ros1	inactive: -1.41
GCAAUUUGAGCAGUAUGUATT against 5730453I16Rik	inactive: 0.373
GGUGGACACUCUUGACCUATT against Zfp235	inactive: 0.772
GGUCUAGCUCCAAUUGGAUTT against AI842396	inactive: -0.428
GGAGAGAAGUGCUACAUCATT against Lect1	inactive: 1.54
GGGUCAUUAAUGAUGGGCCTT against Si	inactive: -0.304
GGUGUUCACACUCUUUUCUTT against Laptm4b	inactive: -0.158
GGCCUCCUUUGAUCAUGCGTT against Zfp219	inactive: 0.539
GCCAUUGUCACAGUCUGAATT against Bhc80	inactive: -2.24
GGUAGAAUGGUUUUGAAGATT against Rnf130	inactive: 1.66
GGACCAAGGAGCAUUGAAATT against Fkbp7	inactive: -0.581

Two entries picked at random from those above:
Sequence	z-score
GGCCUCCUUUGAUCAUGCGTT against Zfp219	inactive: 0.539
GGUGUUCACACUCUUUUCUTT against Laptm4b	inactive: -0.158

Carrying on.

Sequence	z-score
GCCCUAUAACAACCUCAAGTT against Cdk10	inactive: -0.464
GCAUGAGACUGUGAACCAGTT against Efnb1	inactive: -0.723
CCUCAUCCUUAGUUGUUUUTT against Tg737Rpw	inactive: 0.345
CGAAUUUACUUCAGACUUCTT against Aim1	inactive: -0.143
GCAUCGAAGAGUUCAGAAUTT against C6.1AL	inactive: 0.156
GCCAUGCACUAACUUGAAUTT against Adamts4	inactive: 2.24
GGAUGUGAAGAGCAAUCAGTT against 1700012G19Rik	inactive: 1.57
GGGCUUUAUGCAGACCUACTT against Apoc4	inactive: 0.481
GCUCCUAGUGUUUUUGUGGTT against Arbp	inactive: 0.692
GCAUAUGAGAUAGUUAACATT against 2210023G05Rik	inactive: 1.01
GGCUAACUUUAGUGAGGUATT against 3110070M22Rik	inactive: -0.403
CCGUGUGCAUUUACGGGCATT against Cndp2	inactive: -0.489
CCAAGUUAGUGGAUGAAUGTT against C730031G17	inactive: 1.35
GGAGCAAGCACCUAUACUCTT against 1700029M20Rik	inactive: -1.28
CCUCAAAAUCCUACAUCUUTT against LOC446210	inactive: 0.863
CCCUGUUUGGCAAUAACAATT against Nup98	inactive: -2.6
GGAGAACAAAGUAUUGGUGTT against Cacna1f	inactive: -0.403
GCCUGUUACAGGAAUCAGGTT against 2700083E18Rik	inactive: 0.782
GGACGUAAUCAACAUAGCUTT against BC059177	inactive: 3.28
GGAAGGUUUCAUCUUCAAATT against Hsf2	inactive: 0.144
GCUGAUCGCUUUGAUUCGATT against Fkbp11	inactive: 0.0597
GGAGGUCGAGCUAUGUUUATT against Psmd11	inactive: -3.3
GCUACUCGCGUUUAAUUUUTT against Slc9a9	inactive: 0.428
CGCCAAUGUGAUUAAACUATT against Mak	inactive: -0.478
GGUCUUCUGAAGAUGGCGUTT against Pja2	inactive: 0.302
GGGAAGCUUCUGUGAGUUUTT against Stag3	inactive: 0.863

Sequence	z-score
GCCUCUGAACGGUUUGUAATT against Gm185	inactive: -0.359
GGCAUCUAGGAGAACCUCATT against Insig2	inactive: -2.02
GGGCAAAGGGAGUGACAAATT against Skp2	inactive: -2.16
CGGCUAUUCAGAGGACGAATT against Gnai3	inactive: 0.182
GACUAUCCUACUUACUAUATT against 1110038M16Rik	inactive: 1.03
GGGCCUUGAGCUCUAUUUATT against 1810063P04Rik	inactive: -1.24
GGAAGCAAGCAACAUCUUGTT against B230396O12Rik	inactive: -0.035
GGAGCAAGUCUUGAAAAUUTT against Mtmr1	inactive: 0.167
GCUCAAACACUUACACACUTT against Alcam	inactive: -0.161
CCUUCCAUGACCUAGUUAGTT against Mras	inactive: 1.89
GGACCUAAUCCAUAAGGUCTT against C630049M13	inactive: 0.0689
GGUAGAAAUGGUGAGGUGATT against Pcdhgc5	inactive: -2.16
CCAUGUUCCAGUUAAUGACTT against Ptch1	inactive: 0.722
GGAUAUUUUUUGGUGCUGATT against Gbif	inactive: 1.46
CCUUGCAGCAUCAGGACUUTT against Ascl2	inactive: 1.21
CCAAUAAGAGUGCUGAUGGTT against Mkl1	inactive: 1.11
GGUCUUCGAAAGAACCAAGTT against Siva	inactive: -1.79
CCUGUGACUUUAAUUGCUUTT against Zfp275	inactive: 0.362
GGAUGAGUGCUCCAAGAUCTT against AW050020	inactive: -0.102
GGACUUGAGUGUGAAUCAATT against Anxa1	inactive: 1.16
GGGAAUAUUUGGAUAACUUTT against Pak7	inactive: -0.51
GCAAAGAACGGAAUGCACCTT against Hars2	inactive: -0.541
GGAAAUGUACAUCAUCAAGTT against Cnga2	inactive: 0.696
GGCCUCAACAUGAUGACUGTT against D230005D02Rik	inactive: -1.1
GGAAAACAGUGGUAGCUUATT against Cnp1	inactive: 0.471
CCAAGAAUGUUUCCAUGUUTT against Slc12a5	inactive: -0.938
